Data reported in patent US7531318B2, “Screening of agents for activity against ischemic myocardial insults” (priority 2004, dated 2009).
For at least one compound, name, drawing or mass did not settle the structure.

System: E11.5 cardiac outflow tract explants (myocardial cells)
Experiment: Collagen gel migration assay, embryonic heart explant: myocardial cell migration and beating
Type: cell-based, mouse
Conditions: thymosin β4 with 100 nM wortmannin vs without, P<0.05
Description: Collagen gel migration assay. Outflow tract was dissected from E11.5 wild-type mouse embryos and placed on collagen matrices as previously described (Runyan and Markwald, 1983. After 10 h of attachment explants were incubated in 30 ng per 300 μl thymosin β4 in PBS, PBS alone or thymosin β4 and 100 nM wortmannin. Cultures were carried out for 3-9 days at 37° C. 5% CO2 and fixed in 4% paraformaldehyde in PBS for 10 min at room temperature. Cells were counted for quantification of migration and distance using at least three separate explants under each condition for endothelial migration and eight separate explants for myocardial migration.
Immunocytochemistry on collagen gel explants. Paraformaldehyde-fixed explants were permeabilized for 10 min at room temperature with Permeabilize solution (10 mM PIPES pH 6.8; 50 mM NaCl, 0.5% Triton X-100, 300 mM sucrose, 3 mM MgCl2) and rinsed with PBS twice for 5 min each at room temperature. After a series of blocking and rinsing steps, detection antibodies were used and explants rinsed and incubated with equilibration buffer (Anti-Fade kit) for 10 min at room temperature. Explants were scooped to a glass microscope slide, covered and examined by fluorescein microscopy. TUNEL assay was performed using ApopTag plus fluorescein in situ apoptosis detection kit (Intergen Company S7111) as recommended. […]

COC[C@H]1OC(=O)c2coc3c2[C@@]1(C)C1=C(C3=O)[C@@H]2CCC(=O)[C@@]2(C)C[C@H]1OC(C)=O [wortmannin, reference compound]
beating frequency induced by thymosin β4: significant reduction
myocardial cell migration induced by thymosin β4: significant reduction
